Data: US20200010563A1 (PROTHENA BIOSCIENCES, published 2020)
No constants are given. Whether binding was seen depends on the method and setting. Some binding calls cover weakened binding; strength is not graded here.

T1: human MCAM protein (form in the assay not stated) (human) (UniProt P43121)
T1 sequence: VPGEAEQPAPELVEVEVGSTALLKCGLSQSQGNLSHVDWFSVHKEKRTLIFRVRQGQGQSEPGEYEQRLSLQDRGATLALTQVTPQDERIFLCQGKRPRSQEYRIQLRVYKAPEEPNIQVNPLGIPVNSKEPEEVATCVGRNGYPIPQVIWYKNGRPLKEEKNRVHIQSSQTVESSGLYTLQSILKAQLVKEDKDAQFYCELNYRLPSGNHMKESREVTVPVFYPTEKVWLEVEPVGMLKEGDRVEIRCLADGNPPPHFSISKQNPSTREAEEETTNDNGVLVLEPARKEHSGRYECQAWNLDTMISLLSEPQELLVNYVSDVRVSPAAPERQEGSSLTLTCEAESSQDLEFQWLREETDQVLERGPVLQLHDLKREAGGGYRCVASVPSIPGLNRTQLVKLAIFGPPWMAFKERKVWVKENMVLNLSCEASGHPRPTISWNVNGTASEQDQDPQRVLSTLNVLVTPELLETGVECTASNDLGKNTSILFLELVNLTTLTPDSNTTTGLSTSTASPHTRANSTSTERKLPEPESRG

T2: combination of human MCAM domains 1 and 2 (amino acids 19-242) hFc construct (human) (UniProt P43121)
T2 sequence: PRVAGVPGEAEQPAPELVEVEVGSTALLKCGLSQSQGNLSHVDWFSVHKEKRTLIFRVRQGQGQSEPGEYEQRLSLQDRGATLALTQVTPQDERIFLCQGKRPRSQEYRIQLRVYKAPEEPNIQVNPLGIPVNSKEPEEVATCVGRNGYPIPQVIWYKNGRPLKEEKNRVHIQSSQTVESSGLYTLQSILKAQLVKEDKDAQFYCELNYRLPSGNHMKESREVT

T3: human MCAM expressed on transfected CHO cells (human) (UniProt P43121)
T3 sequence: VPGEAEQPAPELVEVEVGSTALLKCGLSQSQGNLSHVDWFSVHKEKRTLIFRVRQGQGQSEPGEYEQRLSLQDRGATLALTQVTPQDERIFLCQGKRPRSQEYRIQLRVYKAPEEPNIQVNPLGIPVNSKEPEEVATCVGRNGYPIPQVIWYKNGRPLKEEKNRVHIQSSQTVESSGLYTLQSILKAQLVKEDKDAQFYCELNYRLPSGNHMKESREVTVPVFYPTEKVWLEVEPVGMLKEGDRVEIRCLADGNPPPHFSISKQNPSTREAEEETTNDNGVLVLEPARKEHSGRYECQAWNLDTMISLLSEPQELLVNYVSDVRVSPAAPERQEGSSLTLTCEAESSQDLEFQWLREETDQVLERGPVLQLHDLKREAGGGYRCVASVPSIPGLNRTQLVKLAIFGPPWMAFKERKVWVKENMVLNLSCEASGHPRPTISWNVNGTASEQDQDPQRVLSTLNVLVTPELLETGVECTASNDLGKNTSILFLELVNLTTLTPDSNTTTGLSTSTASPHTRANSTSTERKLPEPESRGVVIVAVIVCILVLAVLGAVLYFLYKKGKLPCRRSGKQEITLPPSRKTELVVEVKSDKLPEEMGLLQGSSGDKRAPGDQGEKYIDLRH


Assays:
[1] = target: T1, human MCAM protein (form in the assay not stated) (human); assay: summary of Examples 2-3
[2] = target: T2, combination of human MCAM domains 1 and 2 (amino acids 19-242) hFc construct (human); assay: ForteBio BLI, MCAMhFc domains on anti-human IgG Fc sensors, antibody 5 ug/ml
[3] = target: T3, human MCAM expressed on transfected CHO cells (human); assay: affinity experiments, data not shown; human MCAM on the surface of living cells
[4] = target: T1, human MCAM protein (form in the assay not stated) (human); assay: BLI (ForteBio Octet QK); antigen not named

Row | binding [1] | binding [2] | binding [3] | binding [4] | Binder
1 | binds | binds | binds |  | rat anti-human MCAM monoclonal antibody clone 2107.4.10 (antibody, V domains shown) VH: QVQLKESGPGLVQSSQTLSLTCTVSGFSLTSNGVSWVRQPPGKGLEWIAAISSGGSTYYNSAFKSRLSISRNTSKSQVLLKMNSLQTEDTGMYFCARHRPFYFDYWGQGVMVTVSS VL: DIQVTQSPSLLSASVGDRVTLNCKGSQNIYKSLAWFRLKRGEAPKLLIYDANSLQTGIPSRFSGSGSGTDFTLTITSLQPEDVATYFCQQYYSGYTFGAGTKLELK
2 | binds |  | binds |  | mouse anti-human MCAM monoclonal antibody clone 1415.1.1 (antibody, V domains shown, Mouse hybridoma monoclonal) VH: QVQLQQPGAELVQPGAPVKLSCKASGYIFTSYWMNWVKQRPGRGLEWIGRIDPSDSKIHYNQKFKDKATLTVDRSSSTAYIQLGSLTSEDSAVYYCAKEGGLRRGDYAMDYWGQGTSVTVSS VL: DIVMTQSPATLSVTPGDRVSLSCRASQSISDYLHWYQQKSHESPRLLIKYASQSISGIPSRFSGSGSGSDFTLSINSVEPEDVGVYYCQNGHNFPRTFGGGTKLEIK
3 | binds |  | binds |  | mouse anti-human MCAM monoclonal antibody clone 1414.1.2 (antibody, V domains shown, Mouse hybridoma monoclonal) VH: EIQLQQTGPELVKPGASVKISCKASGYSFTDYIMLWVKQSHGKSLEWIGNINPYSGSSGYNLKFKGKATLTVDKSSSTAYMQLNSLTSEDSAVYYCARGKDFAMDYWGQGTSVTVSS VL: DIVMSQSPSSLAVSAGEKVTMSCKSSQSLLNSSTRKNFLAWYQQKPGQSPKLLIYWASTRESGVPDRFTGSGSGTDFTLTISSVQAEDLAVYYCKQSYNRYTFGGGTKLEIK
4 | binds |  | binds |  | mouse anti-human MCAM monoclonal antibody clone 1749.1.3 (antibody, V domains shown, Mouse hybridoma monoclonal; also called m1749) VH: DVKLVESGGDLVKPGGSLKLSCAASGFTFSSYIMSWVRQTPEKRLEWVATISSGGSSTYYPDSVKGRFTISRDNAKNTLYLQMSSLKSEDTAMYYCTRDDDYDVKVFAYWGQGTLVTVSA VL: DIVMSQSPSSLAVSAGEKVTMNCKSSRSLLNSRIRKNYLAWYQQKPGQSPKLLIYWASTRESGVPDRFTGSGSGTDFTLTISSVQAEDLAVYYCKQSYNLLTFGAGTKLELK
5 | binds | binds | binds |  | rat anti-human MCAM monoclonal antibody clone 2120.4.19 (antibody, V domains shown) VH: QVQLKESGPGLVQPSQTLSLTCTVSGFSLTSNGVSWVRQPPGKGLEWIAAISSGGTTYYNSAFKSRLSISRNTSKSQVLLKMNSLQTEDTAMYFCARRYGYGWYFDFWGPGTMVTVSS VL: DIRMTQSPSLLSASVGDRVTLNCKASQNIYNSLAWYQQKLGEGPKVLIFNANSLQTGIPSRFSGSGSGTDFTLTISSLQPEDFATYFCQQFYSGYTFGAGTKLELK
6 | binds |  | binds |  | mouse anti-human MCAM monoclonal antibody clone 1174.1.3 (antibody, V domains shown, Mouse hybridoma monoclonal) VH: QIQLVQSGPELKKPGETVKISCKASGYTFTNYGMNWVKQAPGKGLKWMGWINTYTGEPTYADDFKGRFALSLETSASTAYLQINNLKNEDMATYFCARYRYNKYERAMDYWGQGTSVTVSS VL: DIVLTQSPASLAVSLGQRATISCRASKSVSTSGYSYMYWYQQKPGQPPKLLIYLASNLESGVPARFSGSGSGTDFTLNIHPVEEEDAATYYCQHSRELPFTFGSGTKLEIK
7 |  |  |  | binds | humanized 1749 antibody hu1749VH3VL3 (Hu1749VHv3 and Hu1749VLv3) (antibody, V domains shown) VH: EVKLVESGGGLVQPGGSLRLSCAASGFTFSSYIMSWVRQTPEKRLEWVATISSGGSSTYYPDSVKGRFTISRDNAKNTLYLQMSSLKSEDTAMYYCTRDDDYDVKVFAYWGQGTLVTVSS VL: DIVMTQSPSSLAVSLGERVTINCKSSRSLLNSRIRKNYLAWYQQKPGQSPKLLIYWASTRESGVPDRFSGSGSGTDFTLTISSLQAEDVAVYYCKQSYNLLTFGQGTKVEIKR
